# Source: the supplement of paper PMC3334620
# Whole data set: some 33,000 sequences, median “E-score (-0.5 to 0.5)” near -0.0034, cut for the highest 2% near 0.25. The list shows a part of the results.
# Target: T1, Yap3 (UniProt P38749)
# T1 sequence: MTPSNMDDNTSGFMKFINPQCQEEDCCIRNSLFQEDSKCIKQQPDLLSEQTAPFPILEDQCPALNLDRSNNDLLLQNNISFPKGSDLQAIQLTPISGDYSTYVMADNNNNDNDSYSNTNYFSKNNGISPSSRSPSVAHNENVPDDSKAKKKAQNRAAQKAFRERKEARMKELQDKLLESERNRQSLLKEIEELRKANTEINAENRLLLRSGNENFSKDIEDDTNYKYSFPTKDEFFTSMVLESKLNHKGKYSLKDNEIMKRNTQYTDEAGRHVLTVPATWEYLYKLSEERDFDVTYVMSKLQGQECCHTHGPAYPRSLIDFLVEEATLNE
# Experiment: PBM E-score (8-mer binding enrichment) (E-score (-0.5 to 0.5)); higher = stronger / more preferred TF binding
# Settings: protein concentration: 100 nM; construct: GST-full length
# Procedure, shortened: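 PURExpress in vitro transcription/translation supplied GST-tagged yeast transcription factors, either full-length or DNA-binding domain. Applied at about 100-200 nM to universal all-10-mer Agilent arrays double-stranded by primer extension, the bound protein was detected with fluorescent anti-GST. E-scores, modified Wilcoxon-Mann-Whitney statistics, were given by the Universal PBM Analysis Suite to ungapped eight-base words pooled with their reverse complements after masliner normalisation.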
row,Sequence,PBM E-score
1,AAATACCC,-0.062
2,CCTATCTC,-0.0285
3,GACGGCTC,-0.125
4,CTGGAGCA,-0.00117
5,TATGGCAA,0.0667
6,ATGGAGGC,-0.168
7,CATACAGA,0.118
8,ATGCCTGC,-0.121
9,CTACGTAA,0.135
10,AAGTTCGA,0.168
11,CTAGTGCA,0.103
12,AGTCAACT,-0.116
13,GCCGAAAA,0.112
14,CTGTACGC,-0.0739
15,CAGTATTC,0.133
16,CACAATAA,0.0648
17,CCAAGCTC,-0.0892
18,CCTGACAG,-0.0186
19,GCCGCACC,-0.164
20,TGTGCCAA,0.116
21,GCCAAACA,0.0153
22,ACAAATTC,0.17
23,CAATCGGC,-0.0271
24,CTATCGAC,-0.0599
25,AATCGGGA,0.0297

row,Sequence,PBM E-score
1,CTCCCGTC,0.0163
2,ACAGTACT,-0.0583
3,AGGGCTCA,-0.194
4,GCTCGGCC,-0.322
5,GCAAAGCA,-0.0867
6,TCTTTACA,0.231
7,ACAGCCTC,-0.155
8,CATTTTAG,0.121
9,CGCTCCAC,-0.128
10,ATTCGAAG,0.0799
11,TAGAGCAA,-0.0378
12,AGCTAAAA,0.0436
13,ATGGCATG,0.0696
14,ATAGCGAT,0.0786
15,GGTACTCA,0.00909
16,GACCCTAC,-0.176
17,GGTCGAAA,-0.188
18,CGCGGTAA,0.115
19,AGGGCCTC,-0.277
20,AAGGCTGT,-0.162
21,GGTTCGTA,0.116
22,CCCTTCAC,-0.128
23,TATCACAA,0.112
24,CTTTTGTC,0.0462
25,GCACCATA,-0.036

row,Sequence,PBM E-score
1,CTGCCGTA,-0.0472
2,TAACGATA,0.261
3,CGTGTCCA,-0.127
4,GATTAAAC,0.0276
5,AGAACCTG,-0.128
6,ATGTCGTA,0.0357
7,AGGGCGGA,-0.313
8,ACCAAGTG,-0.15
9,AGGGACTC,-0.314
10,CAGCTCAG,-0.164
11,TGATCGAA,-0.0093
12,GTCGGCGA,-0.157
13,TATGCCGA,0.0214
14,ATATTTCC,0.0744
15,CCTGTCCC,-0.192
16,AATGGTGT,0.175
17,AGTGCGAA,-0.0603
18,CTAGCCAA,0.0121
19,ATCCCTCA,-0.172
20,AATACTCT,0.223
21,CATTTGCG,-0.00392
22,GCTCATTA,0.0889
23,GTTGGAAA,-0.00535
24,ATTACGGC,0.241
25,TACGTTAA,0.195

row,Sequence,PBM E-score
1,AGAATCTC,-0.179
2,CGTACCCA,0.0701
3,ATAATTTA,0.303
4,AGAAGACT,-0.0743
5,ACGTCCAG,-0.194
6,GAGCCCTC,-0.24
7,CTTCAAGC,-0.172
8,GTGCTATA,0.189
9,GGGTTCCA,-0.221
10,ACTGCAGG,-0.213
11,CGACCGTA,-0.0633
12,CCACCCGA,0.0551
13,ACGATTGA,-0.0216
14,CAGAGTTA,-0.0557
15,AAACAGAG,0.0343
16,ATACCTTG,0.0786
17,ATAGGAAC,0.126
18,GGTATACA,0.00445
19,CCGGCCCG,-0.303
20,AGGCATAT,0.0305
21,AAAACCAT,0.174
22,AGATGTGC,0.11
23,CGGTGGCA,-0.289
24,TTATTGAA,0.183
25,AATAGGTA,0.14

# An excerpt of these results, bar-delimited:
row | Sequence | PBM E-score
18 | GGTATACA | 0.00445
19 | CCGGCCCG | -0.303
20 | AGGCATAT | 0.0305
21 | AAAACCAT | 0.174
22 | AGATGTGC | 0.11

# Later entries:

row,Sequence,PBM E-score
1,AAGTTCTA,0.0351
2,CGACCTTA,0.0354
3,CCGCCTCC,-0.231
4,GCACCACA,-0.0944
5,TAACGAGA,0.195
6,AGCACCAG,-0.078
7,CATTGAAA,0.229
8,CCCATGGA,-0.0692
9,ACCTGCAA,-0.125
10,CAATTCTA,0.113
11,CGCCAAGA,-0.284
12,ATACATGA,0.113
13,GCCGCTAA,-0.0267
14,ATTCATGG,-0.0129
15,AGCTGTAC,-0.0794
16,AAAGGGAG,-0.216
17,CTATTGTA,0.16
18,GCCGGCAA,0.0311
19,ACCTAGGA,0.0583
20,GAGTCACC,-0.196
21,CGCTTGTA,0.178
22,TCATCTCA,0.249
23,CCGATGTC,0.0178
24,CAGCTAAC,-0.146
25,ACGCCAGG,-0.13

# 4 records drawn at random from the list so far, as already listed:
row,Sequence,PBM E-score
11,CGCCAAGA,-0.284
7,CATTGAAA,0.229
18,GCCGGCAA,0.0311
9,ACCTGCAA,-0.125

# Later entries

row,Sequence,PBM E-score
1,AACTTACT,-0.0275
2,GGAATGCC,-0.107
3,ACACTGGG,-0.12
4,ATATCTTA,0.201
5,CATGGAAC,-0.0425
6,CTTCTAGC,-0.249
7,GGATGAAA,0.214
8,CCACTGCC,-0.0514
9,CTCAAGAA,-0.036
10,ATCTTAGC,-0.103
11,AGAAGTGA,-0.0627
12,ACAAAAAT,0.298
13,AACACCAT,0.169
14,ACTACTCG,0.115
15,GATAGCGC,-0.0561
16,AGATGGCC,-0.161
17,CCGAAGGC,-0.309
18,GCATTAAA,0.177
19,AACGCAAA,0.0912
20,ATAACGCG,0.107
21,CGGCGTAC,-0.15
22,ACGCAAGC,0.0328
23,TCTTCTAA,0.0237
24,CATAGTCC,-0.0721
25,GATCTGCA,-0.145

row,Sequence,PBM E-score
1,TAATTTAA,0.178
2,AGAACCAT,0.165
3,GGTCATTA,0.088
4,AACATATT,0.213
5,ACCCGCAG,-0.0808
6,AAACCTAC,0.244
7,CACCGTGA,-0.0612
8,ACGCCGCT,0.00458
9,ATGATCAC,0.159
10,ACTAAGGG,-0.00212
11,AGAGTACC,0.0203
12,AAGCCGCC,-0.181
13,AGCAGTTA,-0.0217
14,CTTCTCTA,-0.105
15,AATACCTC,0.101
16,ATTTAGGG,-0.0356
17,AGAATAGA,0.0892
18,ACCAGCAT,0.116
19,AGGATACT,-0.0431
20,ACGCATTA,0.073
21,CGGATGTC,-0.134
22,ACGGAAGT,0.126
